Experiment [1] addresses T1, cavin1-myc-BirA* (rat) (UniProt P85125).
T1 sequence: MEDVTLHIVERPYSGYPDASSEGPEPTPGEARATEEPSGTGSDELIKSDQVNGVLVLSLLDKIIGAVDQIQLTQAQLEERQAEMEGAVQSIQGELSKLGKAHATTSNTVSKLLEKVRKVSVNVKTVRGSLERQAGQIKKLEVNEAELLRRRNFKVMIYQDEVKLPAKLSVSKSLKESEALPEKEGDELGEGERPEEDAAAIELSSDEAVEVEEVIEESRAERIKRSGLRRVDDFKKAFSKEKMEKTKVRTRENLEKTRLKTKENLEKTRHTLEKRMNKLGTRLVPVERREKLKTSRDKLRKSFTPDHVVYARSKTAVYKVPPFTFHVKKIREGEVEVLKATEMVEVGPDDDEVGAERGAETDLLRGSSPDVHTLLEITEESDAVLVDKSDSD
Description: proximity labelling; BioID in HeLa cells, 50 uM biotin for 16-20 hours, lysis in 1% Triton X-100, 1% octyl-glucoside, capture on streptavidin beads, mass spectrometry; 7 experiments, enrichment over negative control BirA* constructs.

The chains behind the UniProt entries cited, without tags or fusion partners.
UniProt Q03135: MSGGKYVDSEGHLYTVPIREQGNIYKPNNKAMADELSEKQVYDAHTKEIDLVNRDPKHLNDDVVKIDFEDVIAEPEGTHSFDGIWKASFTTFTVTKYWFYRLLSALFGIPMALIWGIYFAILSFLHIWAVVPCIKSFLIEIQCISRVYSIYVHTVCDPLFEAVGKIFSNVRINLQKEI

Experiment [2] deals with T1, cavin1-myc-BirA* (rat). Description: proximity labelling; BioID in HeLa cells transfected with cavin1-myc-BirA* and incubated with exogenous biotin; biotinylated proteins shown on blots with streptavidin-HRP, or precipitated with immobilised streptavidin and blotted with anti-caveolin1.

No constants are given. Whether binding was seen depends on the method and setting. In cells and extracts the contact can be indirect. Here binding means that the protein was enriched with, or labelled near, the bait; the list need not be complete. Sequences can lack the tags named with a protein.

For the substance “caveolin1 (endogenous, HeLa) (from UniProt Q03135 1-178)”, the binding result with cavin1-myc-BirA* (rat) [1] and with cavin1-myc-BirA* (rat) [2] was “binds” throughout.

The values are drawn from publication PMC6307745.
